From the supplement of paper PMC10849652
This is one part of the list.

Sequences of proteins named here, by UniProt entry; tags and fusion partners are left off. A change or cut given only in a name is not applied to a line headed by its entry.
UniProt O15230: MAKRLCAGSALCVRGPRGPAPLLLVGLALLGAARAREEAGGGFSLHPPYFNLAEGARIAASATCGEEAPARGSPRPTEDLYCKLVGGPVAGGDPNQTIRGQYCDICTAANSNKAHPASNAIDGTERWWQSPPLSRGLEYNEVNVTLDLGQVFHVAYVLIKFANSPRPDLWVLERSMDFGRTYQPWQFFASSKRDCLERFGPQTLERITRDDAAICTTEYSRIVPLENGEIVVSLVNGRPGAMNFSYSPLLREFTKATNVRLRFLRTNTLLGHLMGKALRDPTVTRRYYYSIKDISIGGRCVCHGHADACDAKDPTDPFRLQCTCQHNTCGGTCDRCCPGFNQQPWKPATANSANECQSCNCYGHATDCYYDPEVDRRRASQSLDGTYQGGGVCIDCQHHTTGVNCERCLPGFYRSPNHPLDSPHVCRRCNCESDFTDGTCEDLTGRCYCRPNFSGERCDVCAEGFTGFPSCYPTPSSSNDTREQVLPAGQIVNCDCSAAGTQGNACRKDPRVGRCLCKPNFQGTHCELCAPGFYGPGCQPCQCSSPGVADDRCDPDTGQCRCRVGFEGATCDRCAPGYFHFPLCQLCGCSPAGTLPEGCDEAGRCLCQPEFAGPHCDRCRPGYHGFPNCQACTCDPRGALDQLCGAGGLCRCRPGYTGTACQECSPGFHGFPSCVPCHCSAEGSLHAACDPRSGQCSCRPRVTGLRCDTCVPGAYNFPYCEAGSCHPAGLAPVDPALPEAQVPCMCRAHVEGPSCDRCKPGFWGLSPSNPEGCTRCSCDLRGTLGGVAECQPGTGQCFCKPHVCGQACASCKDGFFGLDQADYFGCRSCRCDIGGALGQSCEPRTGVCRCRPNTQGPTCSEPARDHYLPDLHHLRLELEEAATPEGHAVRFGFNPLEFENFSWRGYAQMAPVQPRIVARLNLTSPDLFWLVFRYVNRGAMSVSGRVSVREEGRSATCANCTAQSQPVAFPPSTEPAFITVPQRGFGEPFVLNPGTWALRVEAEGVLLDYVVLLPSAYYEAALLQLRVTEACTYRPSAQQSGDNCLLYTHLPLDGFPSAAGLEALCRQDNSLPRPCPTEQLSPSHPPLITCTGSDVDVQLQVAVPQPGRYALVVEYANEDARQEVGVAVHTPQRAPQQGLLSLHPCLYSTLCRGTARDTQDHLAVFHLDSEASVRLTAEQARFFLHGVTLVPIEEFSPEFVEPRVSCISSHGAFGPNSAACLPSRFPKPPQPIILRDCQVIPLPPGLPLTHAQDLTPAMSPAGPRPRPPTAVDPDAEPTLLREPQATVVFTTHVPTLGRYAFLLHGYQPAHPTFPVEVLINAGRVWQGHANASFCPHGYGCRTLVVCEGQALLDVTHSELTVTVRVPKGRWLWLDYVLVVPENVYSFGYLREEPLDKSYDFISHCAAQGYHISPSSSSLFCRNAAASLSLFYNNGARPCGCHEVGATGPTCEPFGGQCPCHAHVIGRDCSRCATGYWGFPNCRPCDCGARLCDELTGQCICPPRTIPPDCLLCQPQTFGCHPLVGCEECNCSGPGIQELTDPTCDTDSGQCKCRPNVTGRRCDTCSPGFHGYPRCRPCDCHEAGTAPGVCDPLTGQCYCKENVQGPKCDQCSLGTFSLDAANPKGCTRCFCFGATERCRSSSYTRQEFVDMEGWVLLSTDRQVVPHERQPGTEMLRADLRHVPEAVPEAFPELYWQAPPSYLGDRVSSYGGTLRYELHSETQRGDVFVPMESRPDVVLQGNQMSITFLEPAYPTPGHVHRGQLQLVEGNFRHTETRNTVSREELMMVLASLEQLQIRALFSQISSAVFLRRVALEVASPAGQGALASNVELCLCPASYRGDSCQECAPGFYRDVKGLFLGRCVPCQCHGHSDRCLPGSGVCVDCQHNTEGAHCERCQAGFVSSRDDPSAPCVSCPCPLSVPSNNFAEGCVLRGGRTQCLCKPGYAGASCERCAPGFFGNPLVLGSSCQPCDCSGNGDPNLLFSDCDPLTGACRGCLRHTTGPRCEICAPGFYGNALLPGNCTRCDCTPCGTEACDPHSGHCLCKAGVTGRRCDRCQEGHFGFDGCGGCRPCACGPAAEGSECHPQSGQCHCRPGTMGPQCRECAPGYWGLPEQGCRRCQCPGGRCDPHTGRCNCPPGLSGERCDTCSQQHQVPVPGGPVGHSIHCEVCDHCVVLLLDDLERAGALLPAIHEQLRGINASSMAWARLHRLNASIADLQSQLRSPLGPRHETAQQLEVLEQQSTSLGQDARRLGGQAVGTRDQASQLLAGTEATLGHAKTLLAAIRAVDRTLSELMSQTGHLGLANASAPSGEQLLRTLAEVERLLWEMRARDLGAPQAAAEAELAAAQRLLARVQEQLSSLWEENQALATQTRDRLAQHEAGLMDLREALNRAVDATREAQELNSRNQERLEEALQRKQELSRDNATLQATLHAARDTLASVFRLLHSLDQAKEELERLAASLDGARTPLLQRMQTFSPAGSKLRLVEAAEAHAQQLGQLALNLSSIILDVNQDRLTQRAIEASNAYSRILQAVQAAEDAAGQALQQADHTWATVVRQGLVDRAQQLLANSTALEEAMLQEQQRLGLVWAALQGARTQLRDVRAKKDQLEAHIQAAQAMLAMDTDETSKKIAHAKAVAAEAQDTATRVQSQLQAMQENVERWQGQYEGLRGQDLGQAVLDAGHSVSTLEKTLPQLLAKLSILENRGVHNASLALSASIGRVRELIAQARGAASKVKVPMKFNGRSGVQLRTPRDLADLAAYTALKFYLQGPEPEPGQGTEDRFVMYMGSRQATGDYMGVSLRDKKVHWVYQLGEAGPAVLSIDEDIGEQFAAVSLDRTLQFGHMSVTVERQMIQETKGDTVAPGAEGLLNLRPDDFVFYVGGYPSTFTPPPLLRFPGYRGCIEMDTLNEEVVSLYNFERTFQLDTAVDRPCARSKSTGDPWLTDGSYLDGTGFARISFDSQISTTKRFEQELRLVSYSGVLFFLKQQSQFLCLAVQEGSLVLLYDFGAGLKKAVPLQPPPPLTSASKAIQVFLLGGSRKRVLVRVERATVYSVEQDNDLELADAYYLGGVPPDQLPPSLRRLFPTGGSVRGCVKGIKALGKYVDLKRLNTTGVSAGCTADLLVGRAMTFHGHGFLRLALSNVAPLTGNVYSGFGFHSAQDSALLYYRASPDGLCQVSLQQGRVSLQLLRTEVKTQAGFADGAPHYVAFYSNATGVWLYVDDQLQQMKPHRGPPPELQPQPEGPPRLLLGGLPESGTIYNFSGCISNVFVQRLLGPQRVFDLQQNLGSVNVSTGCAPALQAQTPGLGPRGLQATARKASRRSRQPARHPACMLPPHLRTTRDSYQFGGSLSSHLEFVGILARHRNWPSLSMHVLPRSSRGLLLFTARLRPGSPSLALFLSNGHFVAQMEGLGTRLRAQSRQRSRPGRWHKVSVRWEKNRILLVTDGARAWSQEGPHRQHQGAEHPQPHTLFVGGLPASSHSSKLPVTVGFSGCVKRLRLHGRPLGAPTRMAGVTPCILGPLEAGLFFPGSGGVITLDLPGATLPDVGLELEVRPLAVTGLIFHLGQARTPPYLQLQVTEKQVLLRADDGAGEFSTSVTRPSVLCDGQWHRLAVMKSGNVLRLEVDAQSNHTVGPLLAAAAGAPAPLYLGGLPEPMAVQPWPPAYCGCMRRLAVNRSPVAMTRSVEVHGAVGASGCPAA
UniProt P07288: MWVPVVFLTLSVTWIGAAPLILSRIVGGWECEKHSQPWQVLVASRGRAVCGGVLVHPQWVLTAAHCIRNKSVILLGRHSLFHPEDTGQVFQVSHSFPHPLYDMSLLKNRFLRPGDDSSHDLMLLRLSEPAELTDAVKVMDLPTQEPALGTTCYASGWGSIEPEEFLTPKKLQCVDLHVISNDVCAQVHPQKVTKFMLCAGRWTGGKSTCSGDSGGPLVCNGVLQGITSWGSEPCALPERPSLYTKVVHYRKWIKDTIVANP
UniProt Q9NQR1: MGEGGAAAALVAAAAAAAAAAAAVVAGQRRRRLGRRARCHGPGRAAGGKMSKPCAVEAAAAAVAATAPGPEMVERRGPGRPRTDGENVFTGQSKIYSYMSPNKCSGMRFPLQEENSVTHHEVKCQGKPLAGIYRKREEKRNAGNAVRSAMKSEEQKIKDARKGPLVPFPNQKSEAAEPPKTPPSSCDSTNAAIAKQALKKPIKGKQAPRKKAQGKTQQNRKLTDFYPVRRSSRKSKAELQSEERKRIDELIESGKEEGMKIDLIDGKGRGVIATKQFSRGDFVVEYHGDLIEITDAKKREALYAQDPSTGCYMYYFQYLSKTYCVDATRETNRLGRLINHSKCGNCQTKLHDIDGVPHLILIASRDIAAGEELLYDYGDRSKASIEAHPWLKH
UniProt Q9H3R0: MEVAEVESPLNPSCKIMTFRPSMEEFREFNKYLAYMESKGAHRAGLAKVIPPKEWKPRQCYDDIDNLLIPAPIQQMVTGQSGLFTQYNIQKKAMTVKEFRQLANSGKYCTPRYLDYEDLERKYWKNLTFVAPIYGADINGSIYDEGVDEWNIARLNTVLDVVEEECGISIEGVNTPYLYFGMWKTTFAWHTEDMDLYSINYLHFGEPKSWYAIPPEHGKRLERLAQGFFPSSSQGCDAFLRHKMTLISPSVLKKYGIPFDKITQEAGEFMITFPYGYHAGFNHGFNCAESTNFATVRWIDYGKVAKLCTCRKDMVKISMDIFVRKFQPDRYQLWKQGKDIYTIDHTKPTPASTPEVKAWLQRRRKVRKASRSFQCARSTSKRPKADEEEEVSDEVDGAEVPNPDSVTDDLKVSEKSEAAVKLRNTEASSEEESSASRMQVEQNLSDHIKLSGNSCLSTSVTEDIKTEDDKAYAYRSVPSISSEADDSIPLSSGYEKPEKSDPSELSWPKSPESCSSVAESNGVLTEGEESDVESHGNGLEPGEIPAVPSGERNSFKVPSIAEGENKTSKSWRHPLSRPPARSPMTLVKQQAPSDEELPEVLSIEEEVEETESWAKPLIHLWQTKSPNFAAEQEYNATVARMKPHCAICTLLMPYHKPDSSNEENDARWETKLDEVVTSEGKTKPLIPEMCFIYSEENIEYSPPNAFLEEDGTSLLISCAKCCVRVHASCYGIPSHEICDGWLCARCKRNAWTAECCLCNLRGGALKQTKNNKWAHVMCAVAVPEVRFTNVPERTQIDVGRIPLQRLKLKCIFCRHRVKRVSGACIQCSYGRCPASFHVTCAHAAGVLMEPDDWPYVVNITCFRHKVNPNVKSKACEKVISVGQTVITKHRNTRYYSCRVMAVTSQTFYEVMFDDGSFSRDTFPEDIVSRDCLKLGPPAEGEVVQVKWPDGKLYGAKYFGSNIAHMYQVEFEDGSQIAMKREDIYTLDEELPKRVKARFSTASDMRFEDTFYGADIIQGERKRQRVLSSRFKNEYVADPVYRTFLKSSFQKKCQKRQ
UniProt Q9Y2Y9: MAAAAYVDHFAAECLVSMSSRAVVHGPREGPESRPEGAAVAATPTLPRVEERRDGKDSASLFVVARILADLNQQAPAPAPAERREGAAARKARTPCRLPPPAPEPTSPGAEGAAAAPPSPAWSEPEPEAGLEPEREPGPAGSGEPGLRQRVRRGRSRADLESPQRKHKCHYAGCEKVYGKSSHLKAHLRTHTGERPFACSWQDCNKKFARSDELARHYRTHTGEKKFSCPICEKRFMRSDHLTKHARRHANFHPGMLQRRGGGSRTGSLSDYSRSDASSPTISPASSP
UniProt Q53HC5: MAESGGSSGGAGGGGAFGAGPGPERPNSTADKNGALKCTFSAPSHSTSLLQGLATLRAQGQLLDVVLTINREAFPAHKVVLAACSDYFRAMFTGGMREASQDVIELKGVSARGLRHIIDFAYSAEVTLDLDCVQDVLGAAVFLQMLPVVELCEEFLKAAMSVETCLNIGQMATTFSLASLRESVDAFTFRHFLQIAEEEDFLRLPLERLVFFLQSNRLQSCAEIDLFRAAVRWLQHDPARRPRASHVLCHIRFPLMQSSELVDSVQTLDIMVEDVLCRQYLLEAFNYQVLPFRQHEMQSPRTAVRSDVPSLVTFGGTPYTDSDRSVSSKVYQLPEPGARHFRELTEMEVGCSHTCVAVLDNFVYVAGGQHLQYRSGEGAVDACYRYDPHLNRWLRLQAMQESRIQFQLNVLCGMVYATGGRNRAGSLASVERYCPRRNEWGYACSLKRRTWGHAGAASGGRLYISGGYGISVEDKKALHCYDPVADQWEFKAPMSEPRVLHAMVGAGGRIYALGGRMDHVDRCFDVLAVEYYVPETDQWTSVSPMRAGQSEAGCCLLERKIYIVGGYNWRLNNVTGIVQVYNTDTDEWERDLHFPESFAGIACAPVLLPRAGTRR

Tests used:
Assay in all cases: log2 fold change, soluble protein after heating vs DMSO (PISA); higher = thermal stabilisation; K562 lysate, 10 uM; active = over 0.2 and 3.5 SD of the protein, either way, in both replicates (recomputed)
barasertib = compound: CCN(CCCOc1ccc2c(Nc3cc(CC(=O)Nc4cccc(F)c4)[nH]n3)ncnc2c1)CCOP(=O)(O)O [barasertib]
Outline: (§1)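 Log-two fold change in thermal stability relative to solvent controls is reported from duplicates. For each sample, crude K562 extract from dounce-homogenised pellets in PBS pH 7.4 with 1 mM MgCl2, at 1 mg/mL protein, was treated with 10 μM compound for 30 min. Aliquots heated for 3 min across 48°C-58°C were pooled, brought to 0.5% NP-40 at 4°C and cleared at 21,000xg for 90 min. The supernatant was quantified by TMTpro 16plex LC-MS/MS with channel sums equalised.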

[1] = compound: CC[C@@H]1C(=O)N(C)c2cnc(Nc3ccc(C(=O)NC4CCN(C)CC4)cc3OC)nc2N1C1CCCC1
Outline: as §1

[2] = compound: CCn1c(C(=O)N(C2CC2)C2CC2)cc2c3c(ncn3C)c(Nc3cc(C)n(C)n3)nc21
Outline: as §1

[3] = compound: CCn1cc(-c2ccnc3[nH]c(-c4cccc(CN(C)C)c4)cc23)c(-c2ccc(NC(=O)N(C)C)cc2)n1
Outline: as §1

[4] = compound: CN1CCC(CNc2ccc3ncc(-c4cccc(OC(F)(F)F)c4)n3n2)CC1
Outline: as §1

sotrastaurin = compound: CN1CCN(c2nc(C3=C(c4c[nH]c5ccccc45)C(=O)NC3=O)c3ccccc3n2)CC1 [sotrastaurin]
Outline: as §1

saracatinib = compound: CN1CCN(CCOc2cc(OC3CCOCC3)c3c(Nc4c(Cl)ccc5c4OCO5)ncnc3c2)CC1 [saracatinib]
Outline: as §1

[5] = compound: CCCS(=O)(=O)Nc1ccc(F)c(C(=O)c2c[nH]c3ncc(Cl)cc23)c1F
Outline: as §1

volasertib = compound: CC[C@@H]1C(=O)N(C)c2cnc(Nc3ccc(C(=O)N[C@H]4CC[C@H](N5CCN(CC6CC6)CC5)CC4)cc3OC)nc2N1C(C)C [volasertib]
Outline: as §1

Measured: log2 fold change

KLHL17 (UniProt Q6TDP4)
inactive: barasertib -0.036 | [1] -0.056 | [2] 0.111 | [3] 0 | [4] 0.004

KLF3 (UniProt P57682)
inactive: [1] 0.193 | [2] 0.009 | sotrastaurin -0.096

LAMA5 (UniProt O15230)
inactive: barasertib -0.321 | [1] -0.044 | [2] -0.012 | [3] 0.009 | [4] 0.104 | saracatinib -0.051 | sotrastaurin 0.05

KRAS isoform 2 (UniProt P01116)
inactive: [5] 0.019 | [1] 0.156 | volasertib -0.125 | [2] 0.077 | saracatinib -0.06 | sotrastaurin -0.013

KLK3 (UniProt P07288)
inactive: saracatinib -0.795

Two records drawn at random from the list so far, as already listed:
KLHL17 (UniProt Q6TDP4)
inactive: barasertib -0.036 | [1] -0.056 | [2] 0.111 | [3] 0 | [4] 0.004

LAMA5 (UniProt O15230)
inactive: barasertib -0.321 | [1] -0.044 | [2] -0.012 | [3] 0.009 | [4] 0.104 | saracatinib -0.051 | sotrastaurin 0.05

Following part

KMT5A (UniProt Q9NQR1)
inactive: [3] 0.174 | [4] -0.168

L3MBTL2 (UniProt Q969R5)
inactive: [1] -0.068 | [3] 0.059 | [4] 0.178 | saracatinib -0.031 | sotrastaurin 0.005

KDM4C (UniProt Q9H3R0)
inactive: barasertib 0.115 | [2] 0.183 | [3] 0.066 | [4] -0.091 | saracatinib 0.091

LARGE2 (UniProt Q8N3Y3)
inactive: [3] -0.087 | [4] 0.157

KDM5A (UniProt P29375)
inactive: [2] -0.063 | [3] 0.06 | [4] 0.13 | saracatinib 0.148 | sotrastaurin -0.072

KIF18B (UniProt Q86Y91)
inactive: [5] 0.017 | [1] 0.221 | volasertib -0.046 | saracatinib 0.04 | sotrastaurin 0.106

KLHL42 (UniProt Q9P2K6)
inactive: [5] -0.017 | barasertib 0.046 | volasertib 0.038 | [2] 0.061 | [3] -0.013 | [4] 0.073 | saracatinib 0 | sotrastaurin -0.114

KLHDC8B (UniProt Q8IXV7)
inactive: [1] 0.018 | [2] 0.003 | saracatinib -0.039 | sotrastaurin 0.037

KMT2D (UniProt O14686)
inactive: saracatinib -0.325

KIAA0586 isoform 3 (UniProt Q9BVV6)
inactive: [2] 0.093 | saracatinib 0.017 | sotrastaurin 0.181

KREMEN1 isoform 2 (UniProt Q96MU8)
inactive: sotrastaurin -0.018

KLF13 (UniProt Q9Y2Y9)
inactive: sotrastaurin -0.09

KIF1B isoform 3 (UniProt O60333)
inactive: barasertib 0.101 | [1] 0.236 | [2] -0.262 | [3] -0.081 | [4] 0.025 | saracatinib -0.084 | sotrastaurin 0.005

LAPTM4B (UniProt Q86VI4)
inactive: barasertib -0.027 | [2] -0.016 | [3] -0.233 | [4] 0.309

KLHL26 (UniProt Q53HC5)
inactive: [5] -0.126 | volasertib 0.048 | [3] -0.013 | [4] 0.229 | saracatinib 0.095 | sotrastaurin 0.02

KRT13 (UniProt K7EMD9)
inactive: barasertib -0.115 | [2] -0.272

KISS1R (UniProt Q969F8)
inactive: sotrastaurin -0.109

LAMP2 isoform 2 (UniProt P13473)
inactive: barasertib -0.073 | [2] 0.028 | [3] 0.087 | [4] -0.081 | sotrastaurin 0.002
